The values that follow come from publication PMC8803954.

Common to all, as to assay: two-hybrid; Gal4 DNA-binding domain hybrids of Rgt2-CTD with the Gal4 activation domain hybrid of Yck1 in yeast PJ69-4A; GAL-HIS3 reporter (SC-leu-trp-his + 20 mM 3-AT) and GAL-lacZ reporter (X-gal)
Assay [1] deals with T1, BD-Rgt2 (545-624) (S. cerevisiae) (UniProt Q12300).
T1 sequence: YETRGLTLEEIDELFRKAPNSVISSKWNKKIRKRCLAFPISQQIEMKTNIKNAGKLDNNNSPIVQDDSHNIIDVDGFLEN

In assay [2] the target is T2, BD-Rgt2-CTD (546-763) (S. cerevisiae) (UniProt Q12300).
T2 sequence: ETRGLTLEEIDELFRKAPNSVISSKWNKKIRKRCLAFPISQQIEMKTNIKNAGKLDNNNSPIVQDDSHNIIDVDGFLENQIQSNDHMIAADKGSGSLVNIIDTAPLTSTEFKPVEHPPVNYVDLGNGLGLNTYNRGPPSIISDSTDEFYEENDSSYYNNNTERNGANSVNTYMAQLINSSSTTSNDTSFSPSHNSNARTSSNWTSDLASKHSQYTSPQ

Assay [3] concerns the target T3, BD-Rgt2-CTD (546-763) Δ665–696 (S. cerevisiae) (UniProt Q12300).
T3 sequence: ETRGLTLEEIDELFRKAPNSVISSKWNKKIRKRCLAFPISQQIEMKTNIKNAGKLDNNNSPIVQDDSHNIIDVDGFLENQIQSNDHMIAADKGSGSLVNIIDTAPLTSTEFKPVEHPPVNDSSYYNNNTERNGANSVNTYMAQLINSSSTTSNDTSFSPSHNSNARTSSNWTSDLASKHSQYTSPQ

Results are given in words; binding and its absence hold for the method and conditions named. Some results given as binding are weak or reduced against the parent protein; the word gives no strength. Tags and fused reporters may be left off the sequences shown.

On to “palmitoylation-defective AD-Yck1 (lacking the palmitoylation sites Cys537 and Cys538) (from UniProt P23291 1-538) (enzyme)”, for which the binding entry was “no binding” in assay [1], “binds” in assay [2] and “no binding” in assay [3].
